Our source for the binding values is paper PMC12219900, “Mechanistic insights into Bcs1-mediated mitochondrial membrane translocation of the folded Rieske protein” (The EMBO Journal, 2025).

Amino acid sequences for entries named in this document (tags omitted). A change or cut given only in a name is not applied to a line headed by its entry.
UniProt P08067: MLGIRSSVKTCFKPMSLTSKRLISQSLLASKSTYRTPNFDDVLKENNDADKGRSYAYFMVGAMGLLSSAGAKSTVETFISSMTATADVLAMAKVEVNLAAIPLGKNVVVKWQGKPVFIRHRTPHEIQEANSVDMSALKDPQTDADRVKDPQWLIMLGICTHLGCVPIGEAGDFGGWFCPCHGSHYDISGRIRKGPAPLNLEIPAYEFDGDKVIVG

In assay [1] the target is T1, Bcs1 (yeast Bcs1 heptamer) (S. cerevisiae) (UniProt P32839).
T1 sequence: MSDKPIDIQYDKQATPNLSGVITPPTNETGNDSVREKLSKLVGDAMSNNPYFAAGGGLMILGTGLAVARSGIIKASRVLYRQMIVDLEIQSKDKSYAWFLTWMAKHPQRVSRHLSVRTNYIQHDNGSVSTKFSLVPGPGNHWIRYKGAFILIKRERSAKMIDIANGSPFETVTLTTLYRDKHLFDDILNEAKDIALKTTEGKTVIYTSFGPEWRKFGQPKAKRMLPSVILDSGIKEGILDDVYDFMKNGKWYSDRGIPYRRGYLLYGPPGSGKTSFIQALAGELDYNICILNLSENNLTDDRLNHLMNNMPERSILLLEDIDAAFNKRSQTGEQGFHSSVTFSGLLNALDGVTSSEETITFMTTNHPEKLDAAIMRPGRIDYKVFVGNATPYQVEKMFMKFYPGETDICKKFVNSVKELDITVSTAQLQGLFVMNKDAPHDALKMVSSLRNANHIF
The assay is described as follows: 'biochemically or by cryo-EM' (not further described); Bcs1 in the ADP-bound state; both purified.

In assay [2] the target is T1, Bcs1 (yeast Bcs1 heptamer) (S. cerevisiae). The assay is described as follows: cryo-EM structure; Bcs1 first incubated with Rip1-FeS in BN-buffer with 2.5 mM MgCl2 for 10 min at 25 °C, then 2 mM ATPγS for 10 min; ATPγS2 state; both purified.
For assay [3] the target is unchanged. The assay is described as follows: native gel or EMSA; Blue native PAGE; Bcs1 incubated with Rip1-FeS for 10 min at 25 °C first, then 1 mM ATPγS, 2 mM MgCl2 for 10 min (Fig. 4A lane 6); both purified. A general note: Mobility shift assays separate free from complexed probe on a gel.
Assay [4] has the same target. The assay is described as follows: cryo-EM structure; in vitro reconstituted; 30 pmol Bcs1 (heptamer) with 10-fold excess of Rip1-FeS or Rip1-TM, 20 min at 25 °C in BN-buffer, no nucleotide (Apo1 state); both purified.
Assay [5] shares this target. The assay is described as follows: native gel or EMSA; Blue native PAGE; 30 pmol Bcs1 (heptamer) with Rip1 from 0 up to tenfold molar excess, no nucleotide; BN-buffer (15 mM HEPES pH 7.5, 30 mM KCl, 5% glycerol, 0.1% digitonin), 10 min at 25 °C; both purified.
The target is the same in assay [6]. The assay is described as follows: condition: only Rip1-FeS with β-mercaptoethanol (disulfide C164-C180 reduced); native gel or EMSA; Blue native PAGE; Rip1-FeS with β-mercaptoethanol compared to Rip1-FeS purified in the absence of β-mercaptoethanol, added to Bcs1; both purified.

These are yes or no findings as the source states them, for the method shown. For part of these data: Binding can be weak; no strength is given.

On to “Rip1-FeS (C-terminal FeS domain of Rip1, lacking the N-terminal TM segment) (from UniProt P08067) (domain or fragment)”, for which the binding result in assay [1] is “no binding (only Bcs1 in the ADP-bound state)”; in assay [2] it was “binds”; in assay [3], “binds”; in assay [4], “binds”; in assay [5], “binds”; in assay [6], “no binding”.
